Article PMC10617769, “Dietary potassium stimulates Ppp1Ca-Ppp1r1a dephosphorylation of kidney NaCl cotransporter and reduces blood pressure” (The Journal of Clinical Investigation, 2023)
These are yes or no findings as the source states them, for the method shown. Where a sequence is shown, tags or fusion partners need not be part of it.

Biological target: T1, GST fusion protein of the cytoplasmic amino terminus of rat NCC (amino acids 1-133) (rat) (UniProt P55018)
T1 sequence: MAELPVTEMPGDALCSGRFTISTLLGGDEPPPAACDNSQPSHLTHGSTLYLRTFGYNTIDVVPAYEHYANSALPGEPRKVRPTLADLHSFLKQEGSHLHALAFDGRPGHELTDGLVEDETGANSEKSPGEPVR
Assay: pull-down; GST-(N) NCC or GST alone on glutathione-agarose beads with 2–10 μg recombinant phosphatase; 12- to 18-hour incubation in PBS with 0.5 mM TCEP at 4°C; bound protein detected by Western blotting; both purified

binding: no binding (tested: 2–10 μg)
Substance: recombinant calcineurin (PPP3CA) (from UniProt Q08209 1-521) (enzyme)
